Experimental data: PubChem BioAssay AID1259308 (NCATS, 2017)
The deposit covers about 59,000 reagents; this is a part drawn at random. About 1,510 of them (2.6%) were called active. 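Calls use total luciferase alone and ignore viability, so some active siRNAs may act by altering cell number.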 The numbers tell different reagents against one gene apart. No sequences are given here.

Assay: 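Genes whose loss raises luciferase production in HEK293 cells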 (primary screen)
Cells: human HEK293 embryonic kidney cells stably expressing firefly luciferase (HEK-CMV-Luc2-Hygro)
Knock-down reagent: single siRNA against human genes, 0.8 pmol siRNA per well
Duration: 72 h
Read-out: 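Reporter luminescence and viable-cell signal on separate replicate plates, given as percent of non-targeting control and median/MAD z-scores, plus per-cell luciferase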
Scale: total luciferase, z-score and total luciferase, % of control: higher = more reporter protein produced; luciferase per cell, z-score: higher = more reporter output per viable cell; viable cells, % of control: higher = more viable cells
Call rule: 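An siRNA counts as active if its total luciferase robust z-score exceeds 3; genes with two or more such siRNAs out of three were retested with fresh siRNAs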
Calls: active = raised luciferase; inactive = no rise

| Gene | reagent | total luciferase, z-score | total luciferase, % of control | luciferase per cell, z-score | viable cells, % of control | Call |
| --- | --- | --- | --- | --- | --- | --- |
| TRIM37 (tripartite motif containing 37) | 1 | -0.0931 | 80 | -0.351 | 98.1 | inactive |
| TRIM37 (tripartite motif containing 37) | 2 | -0.26 | 76.7 | 0.0712 | 84.1 | inactive |
| TRIM37 (tripartite motif containing 37) | 3 | -0.458 | 72.8 | -0.611 | 95.5 | inactive |
| KLRA1P (killer cell lectin like receptor A1, pseudogene) | 1 | -0.701 | 67.9 | -1.39 | 110 | inactive |
| KLRA1P (killer cell lectin like receptor A1, pseudogene) | 2 | -1.34 | 55.3 | -1.41 | 89.5 | inactive |
| KLRA1P (killer cell lectin like receptor A1, pseudogene) | 3 | 0.776 | 97.3 | 1.09 | 81.7 | inactive |
| SERPINE1 (serpin family E member 1) | 1 | -1.7 | 48.1 | -1.15 | 72.8 | inactive |
| SERPINE1 (serpin family E member 1) | 2 | -0.377 | 74.4 | 1.23 | 60.1 | inactive |
| SERPINE1 (serpin family E member 1) | 3 | -1.91 | 43.9 | -1.63 | 75.3 | inactive |
| WNT4 (Wnt family member 4) | 1 | -2.43 | 33.6 | -1.06 | 49.7 | inactive |
| WNT4 (Wnt family member 4) | 2 | 2.78 | 137 | 2.76 | 74.2 | inactive |
| WNT4 (Wnt family member 4) | 3 | 0.57 | 93.2 | 0.201 | 98.8 | inactive |
| MAGED2 (MAGE family member D2) | 1 | -3.04 | 21.4 | -1.94 | 39.8 | inactive |
| MAGED2 (MAGE family member D2) | 2 | 1.94 | 120 | 0.974 | 104 | inactive |
| MAGED2 (MAGE family member D2) | 3 | 1.98 | 121 | 2.41 | 71.9 | inactive |
| SOWAHA (sosondowah ankyrin repeat domain family member A) | 1 | -0.623 | 69.5 | 0.0884 | 75.9 | inactive |
| SOWAHA (sosondowah ankyrin repeat domain family member A) | 2 | 0.0417 | 82.7 | 0.141 | 89.1 | inactive |
| SOWAHA (sosondowah ankyrin repeat domain family member A) | 3 | -0.266 | 76.6 | -0.595 | 100 | inactive |
| CD247 (CD247 molecule) | 1 | -0.244 | 77 | -0.179 | 90.2 | inactive |
| CD247 (CD247 molecule) | 2 | -0.339 | 75.2 | -0.605 | 98.5 | inactive |
| CD247 (CD247 molecule) | 3 | 0.732 | 96.4 | 0.493 | 94.7 | inactive |
| DTX4 (deltex E3 ubiquitin ligase 4) | 1 | -0.622 | 69.5 | -0.173 | 81.3 | inactive |
| DTX4 (deltex E3 ubiquitin ligase 4) | 2 | -0.374 | 74.5 | -0.272 | 89.4 | inactive |
| DTX4 (deltex E3 ubiquitin ligase 4) | 3 | 0.862 | 99 | 0.629 | 93.8 | inactive |
| KCNH1 (potassium voltage-gated channel subfamily H member 1) | 1 | 0.0305 | 82.5 | 0.572 | 79.3 | inactive |
| KCNH1 (potassium voltage-gated channel subfamily H member 1) | 2 | -0.514 | 71.7 | -0.423 | 89.5 | inactive |
| KCNH1 (potassium voltage-gated channel subfamily H member 1) | 3 | -0.749 | 67 | -1.28 | 105 | inactive |
| HSPA9 (heat shock protein family A (Hsp70) member 9) | 1 | -1.96 | 43 | -0.982 | 62.2 | inactive |
| HSPA9 (heat shock protein family A (Hsp70) member 9) | 2 | -1.87 | 44.7 | -1.44 | 73 | inactive |
| HSPA9 (heat shock protein family A (Hsp70) member 9) | 3 | -2.52 | 31.8 | -2.2 | 63.2 | inactive |
| SPAG6 (sperm associated antigen 6) | 1 | -0.328 | 75.4 | 0.413 | 75.5 | inactive |
| SPAG6 (sperm associated antigen 6) | 2 | 1.19 | 105 | 0.814 | 95.1 | inactive |
| SPAG6 (sperm associated antigen 6) | 3 | 3.13 | 144 | 2.14 | 91.6 | active |
| ARL13A (ARF like GTPase 13A) | 1 | 1.21 | 106 | 1.7 | 75.6 | inactive |
| ARL13A (ARF like GTPase 13A) | 2 | 0.368 | 89.2 | 0.701 | 82.9 | inactive |
| ARL13A (ARF like GTPase 13A) | 3 | 1.28 | 107 | 0.825 | 96.4 | inactive |
| GALNT4 (polypeptide N-acetylgalactosaminyltransferase 4) | 1 | -0.972 | 62.6 | -1.05 | 92.2 | inactive |
| GALNT4 (polypeptide N-acetylgalactosaminyltransferase 4) | 2 | 1.07 | 103 | 0.87 | 91.8 | inactive |
| GALNT4 (polypeptide N-acetylgalactosaminyltransferase 4) | 3 | -1.64 | 49.3 | -2.4 | 104 | inactive |
| NAGS (N-acetylglutamate synthase) | 1 | 2.35 | 129 | 1.6 | 94.3 | inactive |
| NAGS (N-acetylglutamate synthase) | 2 | 1.08 | 103 | 0.809 | 93.3 | inactive |
| NAGS (N-acetylglutamate synthase) | 3 | 0.735 | 96.5 | -0.0689 | 110 | inactive |
| WDR19 (WD repeat domain 19) | 1 | 0.867 | 99.1 | 0.369 | 101 | inactive |
| WDR19 (WD repeat domain 19) | 2 | -2.71 | 28.1 | -2.89 | 67.1 | inactive |
| WDR19 (WD repeat domain 19) | 3 | -1.24 | 57.3 | -1.29 | 90 | inactive |
| NDUFV1-DT (NDUFV1 divergent transcript) | 1 | 0.552 | 92.9 | 1.75 | 65.4 | inactive |
| NDUFV1-DT (NDUFV1 divergent transcript) | 2 | 0.545 | 92.7 | 0.201 | 98.3 | inactive |
| NDUFV1-DT (NDUFV1 divergent transcript) | 3 | -0.804 | 65.9 | 0.821 | 59.3 | inactive |
| ZNF721 (zinc finger protein 721) | 1 | 0.599 | 93.8 | 0.808 | 84.7 | inactive |
| ZNF721 (zinc finger protein 721) | 2 | 1 | 102 | 0.935 | 89 | inactive |
| ZNF721 (zinc finger protein 721) | 3 | -2.3 | 36.1 | -1.12 | 54.2 | inactive |
| THRB (thyroid hormone receptor beta) | 1 | -0.358 | 74.8 | -0.939 | 107 | inactive |
| THRB (thyroid hormone receptor beta) | 2 | -1.11 | 59.9 | -0.877 | 84.3 | inactive |
| THRB (thyroid hormone receptor beta) | 3 | -0.113 | 79.6 | -0.266 | 95.4 | inactive |
| PIGY (phosphatidylinositol glycan anchor biosynthesis class Y) | 1 | -0.741 | 67.2 | -0.601 | 87.9 | inactive |
| PIGY (phosphatidylinositol glycan anchor biosynthesis class Y) | 2 | 2.18 | 125 | 1.65 | 90.6 | inactive |
| PIGY (phosphatidylinositol glycan anchor biosynthesis class Y) | 3 | -0.0765 | 80.4 | -0.137 | 93.1 | inactive |

Copied from the entries so far (5 entries):
| Gene | reagent | total luciferase, z-score | total luciferase, % of control | luciferase per cell, z-score | viable cells, % of control | Call |
| --- | --- | --- | --- | --- | --- | --- |
| KCNH1 (potassium voltage-gated channel subfamily H member 1) | 2 | -0.514 | 71.7 | -0.423 | 89.5 | inactive |
| KCNH1 (potassium voltage-gated channel subfamily H member 1) | 3 | -0.749 | 67 | -1.28 | 105 | inactive |
| HSPA9 (heat shock protein family A (Hsp70) member 9) | 1 | -1.96 | 43 | -0.982 | 62.2 | inactive |
| HSPA9 (heat shock protein family A (Hsp70) member 9) | 2 | -1.87 | 44.7 | -1.44 | 73 | inactive |
| HSPA9 (heat shock protein family A (Hsp70) member 9) | 3 | -2.52 | 31.8 | -2.2 | 63.2 | inactive |
